In the test the target is HA-P53 (UniProt P02340). As to the kind of experiment: co-IP; HEK-293T cells transiently transfected with pKH3-HA-P53; RIPA lysis buffer with protease inhibitors; HA or hnRNPK antibody, protein A/G agarose, 4 °C; four washes with lysis buffer; western blot. In general terms: Immunoblotting shows a protein as a band on a membrane.

Protein sequences, listed by entry. Tags and fused reporters are not part of them.
UniProt P02340: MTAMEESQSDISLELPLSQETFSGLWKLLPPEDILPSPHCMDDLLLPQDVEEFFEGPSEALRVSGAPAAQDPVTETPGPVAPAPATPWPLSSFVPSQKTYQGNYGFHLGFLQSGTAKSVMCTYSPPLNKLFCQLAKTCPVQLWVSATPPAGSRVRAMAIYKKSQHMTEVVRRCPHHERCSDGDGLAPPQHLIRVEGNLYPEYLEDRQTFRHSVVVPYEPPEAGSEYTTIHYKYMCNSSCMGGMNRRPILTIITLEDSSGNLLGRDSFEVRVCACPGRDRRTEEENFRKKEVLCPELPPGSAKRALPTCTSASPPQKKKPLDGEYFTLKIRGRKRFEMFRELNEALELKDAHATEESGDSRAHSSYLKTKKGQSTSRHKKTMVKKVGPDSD

No constants are given. Whether binding was seen depends on the method and setting. In cells and extracts the contact can be indirect. Some entries that bind do so weakly or less than the wild type.

With hnRNPK (from UniProt P61978 1-463), the binding entry is on record as “binds”.

These data come from publication PMC12329970.
